In publication doi:10.1101/2020.05.05.079970:
These are yes or no findings as the source states them, for the method shown. Binding seen in cells or lysates may run through a third protein. Some entries that bind do so weakly or less than the wild type.

Sequences of proteins named here, by UniProt entry; tags and fusion partners are left off. A change or cut given only in a name is not applied to a line headed by its entry. A line that says so, or that is headed by a name, gives the form on record, which may keep a tag or linker.
UniProt Q96CW1: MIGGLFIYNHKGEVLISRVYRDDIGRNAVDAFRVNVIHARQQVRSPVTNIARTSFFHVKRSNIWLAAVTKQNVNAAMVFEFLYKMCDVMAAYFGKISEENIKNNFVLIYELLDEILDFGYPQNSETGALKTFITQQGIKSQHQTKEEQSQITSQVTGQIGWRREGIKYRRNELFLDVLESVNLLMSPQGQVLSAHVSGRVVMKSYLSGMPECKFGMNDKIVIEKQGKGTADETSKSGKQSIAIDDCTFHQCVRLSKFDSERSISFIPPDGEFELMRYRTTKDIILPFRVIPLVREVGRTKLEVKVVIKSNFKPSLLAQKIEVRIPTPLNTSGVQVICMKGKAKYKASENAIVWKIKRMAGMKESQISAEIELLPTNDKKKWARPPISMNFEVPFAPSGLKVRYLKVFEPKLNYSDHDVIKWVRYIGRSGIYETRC
UniProt O15027: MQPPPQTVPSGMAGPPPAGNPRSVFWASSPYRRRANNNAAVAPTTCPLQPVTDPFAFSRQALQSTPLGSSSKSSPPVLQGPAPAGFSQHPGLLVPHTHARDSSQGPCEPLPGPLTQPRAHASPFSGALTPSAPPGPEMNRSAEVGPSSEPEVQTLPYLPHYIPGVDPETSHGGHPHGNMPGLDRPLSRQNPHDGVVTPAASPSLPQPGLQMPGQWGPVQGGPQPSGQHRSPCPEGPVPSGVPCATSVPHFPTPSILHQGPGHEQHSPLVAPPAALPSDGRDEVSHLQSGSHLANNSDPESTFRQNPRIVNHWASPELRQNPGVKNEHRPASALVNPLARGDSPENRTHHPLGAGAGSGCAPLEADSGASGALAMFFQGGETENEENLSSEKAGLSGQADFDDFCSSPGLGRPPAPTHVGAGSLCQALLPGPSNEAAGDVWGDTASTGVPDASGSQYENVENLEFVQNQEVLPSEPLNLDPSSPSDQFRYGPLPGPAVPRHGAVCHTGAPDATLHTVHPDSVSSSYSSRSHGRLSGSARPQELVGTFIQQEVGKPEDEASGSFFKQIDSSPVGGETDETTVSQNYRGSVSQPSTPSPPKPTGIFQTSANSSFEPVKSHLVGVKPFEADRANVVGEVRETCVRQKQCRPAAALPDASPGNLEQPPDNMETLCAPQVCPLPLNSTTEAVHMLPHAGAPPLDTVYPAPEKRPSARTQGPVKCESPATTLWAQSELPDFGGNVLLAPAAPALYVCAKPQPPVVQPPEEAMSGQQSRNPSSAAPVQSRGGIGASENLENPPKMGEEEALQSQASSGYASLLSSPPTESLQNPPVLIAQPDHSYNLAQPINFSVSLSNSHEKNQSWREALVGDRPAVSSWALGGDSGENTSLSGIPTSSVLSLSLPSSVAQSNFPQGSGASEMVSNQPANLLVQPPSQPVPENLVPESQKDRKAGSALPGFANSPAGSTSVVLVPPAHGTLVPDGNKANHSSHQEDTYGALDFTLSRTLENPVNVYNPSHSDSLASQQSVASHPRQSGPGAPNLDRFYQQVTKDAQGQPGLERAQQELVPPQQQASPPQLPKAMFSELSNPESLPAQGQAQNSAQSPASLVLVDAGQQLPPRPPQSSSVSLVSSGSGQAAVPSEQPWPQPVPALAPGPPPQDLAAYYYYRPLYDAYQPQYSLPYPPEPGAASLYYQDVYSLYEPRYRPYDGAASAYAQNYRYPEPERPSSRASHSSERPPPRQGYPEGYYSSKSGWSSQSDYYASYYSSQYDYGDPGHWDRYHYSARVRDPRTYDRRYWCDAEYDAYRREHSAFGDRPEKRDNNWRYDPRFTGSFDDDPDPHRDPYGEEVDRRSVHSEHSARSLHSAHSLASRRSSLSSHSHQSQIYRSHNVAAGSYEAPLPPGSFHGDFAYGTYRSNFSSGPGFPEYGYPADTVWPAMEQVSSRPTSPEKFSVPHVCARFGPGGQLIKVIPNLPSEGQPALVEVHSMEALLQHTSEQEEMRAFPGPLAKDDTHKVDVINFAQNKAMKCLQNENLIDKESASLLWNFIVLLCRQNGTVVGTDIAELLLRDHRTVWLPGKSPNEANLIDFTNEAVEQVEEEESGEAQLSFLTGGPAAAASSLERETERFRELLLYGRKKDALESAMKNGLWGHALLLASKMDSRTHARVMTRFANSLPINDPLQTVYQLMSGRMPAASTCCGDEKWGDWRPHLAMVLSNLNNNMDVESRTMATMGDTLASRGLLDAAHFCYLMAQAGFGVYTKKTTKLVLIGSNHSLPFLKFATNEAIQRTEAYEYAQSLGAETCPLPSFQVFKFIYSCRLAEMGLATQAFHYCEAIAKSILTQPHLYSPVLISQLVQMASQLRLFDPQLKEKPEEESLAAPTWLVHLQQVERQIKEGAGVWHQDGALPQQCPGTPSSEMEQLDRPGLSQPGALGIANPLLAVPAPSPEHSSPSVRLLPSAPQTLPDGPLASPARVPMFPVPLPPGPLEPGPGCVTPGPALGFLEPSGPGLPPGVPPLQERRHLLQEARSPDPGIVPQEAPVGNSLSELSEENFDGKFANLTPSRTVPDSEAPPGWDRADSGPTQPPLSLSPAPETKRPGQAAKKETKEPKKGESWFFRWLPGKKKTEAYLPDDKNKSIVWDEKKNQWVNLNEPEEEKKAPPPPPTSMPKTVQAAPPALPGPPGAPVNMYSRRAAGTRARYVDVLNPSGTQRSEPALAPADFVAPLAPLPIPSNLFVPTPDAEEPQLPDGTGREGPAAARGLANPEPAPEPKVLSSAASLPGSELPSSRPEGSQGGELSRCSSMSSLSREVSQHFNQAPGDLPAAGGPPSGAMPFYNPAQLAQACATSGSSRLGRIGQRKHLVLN
UniProt Q9NSY1: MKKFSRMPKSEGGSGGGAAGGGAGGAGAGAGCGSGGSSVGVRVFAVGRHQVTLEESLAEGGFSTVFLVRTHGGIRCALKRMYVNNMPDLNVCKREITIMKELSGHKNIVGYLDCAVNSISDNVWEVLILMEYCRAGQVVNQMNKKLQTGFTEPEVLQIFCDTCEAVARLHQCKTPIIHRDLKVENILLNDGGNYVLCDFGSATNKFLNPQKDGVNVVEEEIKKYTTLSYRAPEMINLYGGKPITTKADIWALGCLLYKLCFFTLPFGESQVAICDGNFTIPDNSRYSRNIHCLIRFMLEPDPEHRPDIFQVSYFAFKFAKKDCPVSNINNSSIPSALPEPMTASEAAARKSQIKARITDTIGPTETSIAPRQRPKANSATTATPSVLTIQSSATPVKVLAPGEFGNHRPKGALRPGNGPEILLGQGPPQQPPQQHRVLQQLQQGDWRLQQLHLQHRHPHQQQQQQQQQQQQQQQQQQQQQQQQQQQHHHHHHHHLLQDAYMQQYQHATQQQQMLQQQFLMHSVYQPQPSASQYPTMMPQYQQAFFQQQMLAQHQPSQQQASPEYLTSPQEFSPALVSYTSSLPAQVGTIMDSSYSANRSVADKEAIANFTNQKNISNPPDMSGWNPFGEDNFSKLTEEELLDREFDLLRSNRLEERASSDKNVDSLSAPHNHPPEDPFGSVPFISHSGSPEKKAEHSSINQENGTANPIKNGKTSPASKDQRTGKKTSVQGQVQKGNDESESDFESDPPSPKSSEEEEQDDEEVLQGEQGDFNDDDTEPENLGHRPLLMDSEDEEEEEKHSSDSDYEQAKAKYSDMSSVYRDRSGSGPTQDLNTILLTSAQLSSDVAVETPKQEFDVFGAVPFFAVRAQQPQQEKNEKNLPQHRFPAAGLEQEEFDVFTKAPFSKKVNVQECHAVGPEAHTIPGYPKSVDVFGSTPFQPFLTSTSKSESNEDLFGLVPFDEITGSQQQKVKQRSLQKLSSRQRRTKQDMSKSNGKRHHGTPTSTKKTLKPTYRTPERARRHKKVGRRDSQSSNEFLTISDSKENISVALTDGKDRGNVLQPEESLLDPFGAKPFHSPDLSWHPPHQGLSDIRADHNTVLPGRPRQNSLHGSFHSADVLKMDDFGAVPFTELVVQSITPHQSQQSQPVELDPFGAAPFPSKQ
BMP2K-S, untagged, ectopically expressed in HEK293 cells (pcDNA3.1-BMP2K-S) (Q9NSY1-2, form named): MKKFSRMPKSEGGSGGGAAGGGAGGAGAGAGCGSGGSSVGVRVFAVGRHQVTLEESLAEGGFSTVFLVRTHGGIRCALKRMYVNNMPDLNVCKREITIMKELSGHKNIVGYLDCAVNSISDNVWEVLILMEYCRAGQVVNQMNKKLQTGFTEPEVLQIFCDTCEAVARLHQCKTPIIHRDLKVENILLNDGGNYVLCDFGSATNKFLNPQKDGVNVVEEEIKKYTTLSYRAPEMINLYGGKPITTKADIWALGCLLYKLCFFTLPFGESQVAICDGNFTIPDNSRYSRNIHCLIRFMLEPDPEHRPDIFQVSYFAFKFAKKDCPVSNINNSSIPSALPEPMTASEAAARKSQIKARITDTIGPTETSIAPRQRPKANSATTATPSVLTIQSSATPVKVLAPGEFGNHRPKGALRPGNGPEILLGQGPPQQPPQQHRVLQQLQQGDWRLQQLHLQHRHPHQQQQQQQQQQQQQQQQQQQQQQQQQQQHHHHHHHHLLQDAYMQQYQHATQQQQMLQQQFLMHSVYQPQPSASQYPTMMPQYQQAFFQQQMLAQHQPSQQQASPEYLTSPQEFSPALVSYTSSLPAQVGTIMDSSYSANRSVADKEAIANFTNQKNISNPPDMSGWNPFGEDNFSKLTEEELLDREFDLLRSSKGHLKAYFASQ

How the values were obtained:
Experiment in all cases: co-IP
[1] = target: T1, SEC24B (endogenous, K562) (human (endogenous in K562)) (UniProt O95487)
T1 sequence: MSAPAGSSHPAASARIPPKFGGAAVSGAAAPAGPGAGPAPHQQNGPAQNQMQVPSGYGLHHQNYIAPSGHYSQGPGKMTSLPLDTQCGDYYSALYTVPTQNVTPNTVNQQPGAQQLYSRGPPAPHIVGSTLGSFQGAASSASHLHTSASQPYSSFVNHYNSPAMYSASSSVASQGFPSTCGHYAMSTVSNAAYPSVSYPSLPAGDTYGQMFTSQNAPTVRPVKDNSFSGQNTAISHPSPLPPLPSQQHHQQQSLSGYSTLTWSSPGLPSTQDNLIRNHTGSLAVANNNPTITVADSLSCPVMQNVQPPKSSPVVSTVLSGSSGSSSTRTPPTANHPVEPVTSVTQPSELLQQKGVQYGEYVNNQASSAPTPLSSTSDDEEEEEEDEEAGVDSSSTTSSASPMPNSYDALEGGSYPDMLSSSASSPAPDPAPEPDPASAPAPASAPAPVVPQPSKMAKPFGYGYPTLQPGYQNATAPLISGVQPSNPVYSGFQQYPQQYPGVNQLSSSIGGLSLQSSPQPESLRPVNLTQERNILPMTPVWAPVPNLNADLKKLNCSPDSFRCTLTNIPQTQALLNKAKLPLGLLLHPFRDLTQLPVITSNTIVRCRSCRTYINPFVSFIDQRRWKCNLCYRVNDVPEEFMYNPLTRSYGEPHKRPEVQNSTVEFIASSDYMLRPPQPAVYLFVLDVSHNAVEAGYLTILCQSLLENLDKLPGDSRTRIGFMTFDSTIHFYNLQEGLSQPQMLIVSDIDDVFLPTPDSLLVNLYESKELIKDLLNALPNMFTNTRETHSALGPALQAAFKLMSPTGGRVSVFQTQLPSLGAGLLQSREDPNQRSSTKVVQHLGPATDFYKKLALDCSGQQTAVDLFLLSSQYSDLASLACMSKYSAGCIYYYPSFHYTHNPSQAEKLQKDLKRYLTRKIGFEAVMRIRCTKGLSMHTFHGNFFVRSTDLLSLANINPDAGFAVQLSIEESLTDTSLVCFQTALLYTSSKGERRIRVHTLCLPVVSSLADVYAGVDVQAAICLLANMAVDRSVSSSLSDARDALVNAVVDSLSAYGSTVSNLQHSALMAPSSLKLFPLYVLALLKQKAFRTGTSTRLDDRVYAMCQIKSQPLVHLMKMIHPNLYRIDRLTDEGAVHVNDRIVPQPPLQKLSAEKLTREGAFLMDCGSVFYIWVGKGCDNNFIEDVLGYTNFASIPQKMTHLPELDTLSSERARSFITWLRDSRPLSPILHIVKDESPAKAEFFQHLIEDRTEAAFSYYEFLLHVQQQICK

[2] = target: Thr156-phosphorylated μ2 adaptin of the AP-2 complex (endogenous, K562) (human (endogenous in K562)) (UniProt Q96CW1)
[3] = target: EGFP-tagged SEC16A (pEGFP-SEC16A) (UniProt O15027)

BMP2K-L, the longer splicing variant of bone morphogenetic protein 2-inducible kinase (endogenous, K562) (from UniProt Q9NSY1 1-1161)
binding [1]: no binding
binding [2]: binds

BMP2K-S, the shorter splicing variant of bone morphogenetic protein 2-inducible kinase (endogenous, K562) (from UniProt Q9NSY1-2 1-662)
binding [2]: no binding

BMP2K-S, untagged, ectopically expressed in HEK293 cells (pcDNA3.1-BMP2K-S) (from UniProt Q9NSY1-2 1-662)
binding [3]: binds
